Assay results from PMC7600425, “Modulation of Guanylate Cyclase Activating Protein 1 (GCAP1) Dimeric Assembly by Ca^2+ or Mg^2+: Hints to Understand Protein Activity” (Biomolecules, 2020).
Results are given in words; binding and its absence hold for the method and conditions named. Some entries that bind do so weakly or less than the wild type.

Target: chicken GCAP1 (chicken) (UniProt P79880)
Test: SEC-MALS; data not shown; chicken GCAP1, said to be analogous to hGCAP1 in the salt-free buffer after addition of 1 mM calcium; both purified

binding: binds
B1: chicken GCAP1 (protein, UniProt P79880 7-199)
chain: KAVEELSATECHQWYKKFMTECPSGQLTLYEFKQFFGLKNLSPSANKYVEQMFETFDFNKDGYIDFMEYVAALSLVLKGKVDQKLRWYFKLYDVDGNGCIDRGELLNIIKAIRAINRCNEAMTAEEFTNMVFDKIDINGDGELSLEEFMEGVQKDEVLLDILTRSLDLTHIVKLIQNDGKNPHAPEEAEEAAQ
